Series [1] concerns the target T1, Rep WT (Escherichia coli) (UniProt P09980).
T1 sequence (looked up): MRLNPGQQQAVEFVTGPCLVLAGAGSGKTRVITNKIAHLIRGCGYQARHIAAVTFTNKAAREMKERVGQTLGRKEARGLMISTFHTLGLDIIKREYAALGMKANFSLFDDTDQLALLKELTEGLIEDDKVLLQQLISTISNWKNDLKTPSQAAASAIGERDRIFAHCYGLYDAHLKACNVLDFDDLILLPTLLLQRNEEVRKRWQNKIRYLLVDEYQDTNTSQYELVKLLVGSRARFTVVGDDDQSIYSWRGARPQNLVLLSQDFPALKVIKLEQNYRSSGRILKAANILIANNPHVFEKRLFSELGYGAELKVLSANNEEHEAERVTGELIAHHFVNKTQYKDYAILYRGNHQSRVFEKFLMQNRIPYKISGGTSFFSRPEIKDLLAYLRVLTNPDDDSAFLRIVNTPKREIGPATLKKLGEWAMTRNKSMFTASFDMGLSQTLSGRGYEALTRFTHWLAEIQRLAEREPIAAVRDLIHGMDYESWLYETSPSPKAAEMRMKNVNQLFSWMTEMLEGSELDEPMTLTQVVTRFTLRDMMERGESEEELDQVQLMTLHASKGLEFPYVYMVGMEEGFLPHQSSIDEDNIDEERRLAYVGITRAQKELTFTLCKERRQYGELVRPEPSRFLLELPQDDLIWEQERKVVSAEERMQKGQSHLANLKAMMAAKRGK
In words: SPR. The note with it: 3'-biotin, SPR: 25 mM Tris-HCl pH 7.6, 50 mM NaCl, 5 mM MgCl2, 0.25 mM DTT, 0.2 mM EDTA, 0.005% P20, 20 C, recombinant protein, residues 1-673, single-stranded DNA.

Series [2] has as its target T2, Rep ΔC33 (Escherichia coli) (UniProt P09980).
T2 sequence (looked up, limits assumed): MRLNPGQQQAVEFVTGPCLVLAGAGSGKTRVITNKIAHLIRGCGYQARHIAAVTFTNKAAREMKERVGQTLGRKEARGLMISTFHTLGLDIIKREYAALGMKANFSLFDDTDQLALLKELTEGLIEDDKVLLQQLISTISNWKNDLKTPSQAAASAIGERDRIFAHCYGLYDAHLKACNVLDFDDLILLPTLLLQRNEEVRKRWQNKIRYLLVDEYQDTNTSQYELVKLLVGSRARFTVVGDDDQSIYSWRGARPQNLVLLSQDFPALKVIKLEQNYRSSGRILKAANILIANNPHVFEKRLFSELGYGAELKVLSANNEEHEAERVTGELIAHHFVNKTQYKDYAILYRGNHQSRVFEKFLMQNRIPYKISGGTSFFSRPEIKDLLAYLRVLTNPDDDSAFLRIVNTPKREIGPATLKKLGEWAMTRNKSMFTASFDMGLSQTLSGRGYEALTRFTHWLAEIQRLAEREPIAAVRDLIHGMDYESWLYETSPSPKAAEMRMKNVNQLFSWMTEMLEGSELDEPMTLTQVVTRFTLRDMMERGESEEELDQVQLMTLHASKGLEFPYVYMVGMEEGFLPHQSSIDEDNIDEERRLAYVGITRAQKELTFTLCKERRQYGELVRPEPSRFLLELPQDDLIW
The series can be described thus: SPR. The settings on record: 200 uM ATP stimulates dissociation; 3'-biotin; SPR: 25 mM Tris-HCl pH 7.6, 50 mM NaCl, 5 mM MgCl2, 0.25 mM DTT, 0.2 mM EDTA, 0.005% P20, 20 C; recombinant protein; protein details: His6; single-stranded DNA.

A weaker result is weaker than the reference pair of the same experiment. Tags and fusion partners may be left off the protein sequences shown. For at least one entry, the source does not settle the construct or the ends of the probe.

Consider TTTTTTTTTT [3'-bio-dT10], for which the binding result in series [1] (20 nM Rep, no nucleotide, faster dissociation than dT35) is reported as “binds more weakly”.

As for “TTTTTTTTTTTTTTTTTTTTTTTTTTTTTTTTTTT [3'-bio-dT35]”, the binding result in series [1] (200 uM ATP stimulates dissociation) and in series [2] was “binds more weakly” in each case.

Source of the values: PMC10123100, “Single-molecule visualization of stalled replication-fork rescue by the Escherichia coli Rep helicase” (Nucleic Acids Research, 2023).
